The test in a line: qHTS Assay for Lipid Storage Modulators in Drosophila S3 Cells.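 For cell number change: cells counted by Cell Tracker Red CMTPX staining in the red channel.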 Conditions: BODIPY lipid droplet fluorescence, 18-24 h; for cell number change: measured here: cell count max response, cells fed with added oleic acid. A digest of the protocol:
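Drosophila S3 cells got compounds at several concentrations plus oleic acid (400 uM solution). Laser-scanning cytometry with 488 nm excitation read lipid droplets at 500-530 nm and cells at 575-640 nm. Percent activity was relative to 20 uM Triacsin C.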
In general terms: In qHTS, concentration-response curves come from the screen itself.

Where [1] appears, read: measured here: lipid fluorescence (Fed channel) AC50, cells fed with added oleic acid.
[2] abbreviates: measured here: cell number channel AC50, cells fed with added oleic acid.

Structures are written as SMILES. This is one part of the list. These are further read-outs of the screen, such as a control signal, another cell line or another target. No call is given for them. The list favours compounds with an active or inconclusive main result. Potencies come from curve fits of mixed quality, noted in brackets.

By AC50 is commonly meant the concentration giving half of the maximal activity seen. Low values mean activity at low concentration, high ones activity only at high concentration. On to `Cc1ccc2nc(C)c(Cl)c(=O)n2c1`, for which the cell number change was 8.5%. Moreover, the AC50 under setting [1] is 6.51 µM [rising, single point].
Regarding `CC(=O)Nc1ccc(-n2nnnc2SCC(=O)NC2CCCC2)cc1`, the cell number change came out at 5.83%. Also, under setting [1], the AC50 is 16.4 µM [falling, single point].
For the compound `O=C(c1cccs1)n1nc(-c2ccccc2)nc1NCc1ccc(F)cc1`, the AC50 under setting [2] was 0.461 µM [rising, partial curve, poor fit] and the AC50 under setting [1] was 2.91 µM [rising, partial curve, poor fit].
Take `CCC(C)(C)NC(=O)Nc1cc(Cl)ccc1OC`: the cell number change was 38.3%. Moreover, the AC50 under setting [2] was 10.3 µM [rising, single point]. Moreover, the AC50 under setting [1] is 0.58 µM [falling, single point].
On to `COc1ccc(C(=O)N(CC2CCCO2)C(C(=O)NCCC(C)C)c2ccc(C)cc2)cc1OC` (centres undefined), for which the cell number change was -4.03%. Also, the AC50 under setting [2] was 0.116 µM [falling, partial curve, poor fit].
With `Cc1ccc(C)c(N2CCN(C(=O)c3cc(S(=O)(=O)N4CCCC4)cn3C)CC2)c1`, the cell number change stood at 10.1%. Further, the AC50 under setting [1] was 29.1 µM [falling, single point].
For `O=C(CSc1nnc(C2CCCCC2)o1)Nc1ccccc1Cl`, the cell number change was 12.6%. Moreover, under setting [1], the AC50 is 29.1 µM [rising, partial curve, poor fit].
Take `Cc1nc2c(C#N)cnn2c2c1CCN2CC1CCCO1` (centres undefined): the cell number change came out at 17.2%. Also, under setting [1], the AC50 was 29.1 µM [rising, partial curve].
Regarding `CC(=O)Nc1ccc(NC(=O)C(Sc2ccccc2)c2ccccc2)cc1` (centres undefined), the cell number change was 26.1%. In addition, the AC50 under setting [1] is 32.6 µM [falling, single point].
Turning to `CCCN1CCN(c2ncnc3scc(C4COc5ccccc5O4)c23)CC1` (centres undefined), the cell number change was -9.54%. The AC50 under setting [1] is 23.1 µM [falling, single point].
For the compound `Cc1nc(COc2cc3oc(=O)cc(C)c3cc2Cl)cs1`, the cell number change was -4.5%.
On the same count and under the same terms, in the case of `Cc1cc(C)cc(N2CN=c3s/c(=C\c4ccco4)c(=O)n3C2)c1` it was 5.17%.
`COCCn1nc2cc(C(=O)NCc3cc(C(F)(F)F)cc(C(F)(F)F)c3)ccc2c1OC`: the cell number change is -9.87%.
`CCCN(CCC)c1nc(N)nc(-c2cc(Cl)ccc2OC)n1`: the cell number change is 0.13%. In addition, the AC50 under setting [1] was 3.66 µM [falling, partial curve].
On to `COc1ccc(S(=O)(=O)NC(C)C(=O)NCc2ccncc2)cc1OC` (centres undefined), for which the cell number change stood at 18.9%. Moreover, the AC50 under setting [1] was 29.1 µM [rising, single point].
Turning to `Brc1cccc(C2Nc3cccc4cccc(c34)N2)c1`, the cell number change is -23.8%. For the same compound, the AC50 under setting [1] is 2.91 µM [rising, single point].
As for `COc1ccc(C(=O)n2nc(C)c(Br)c2C)cc1OC`, the cell number change amounted to 2.13%. Besides, the AC50 under setting [1] was 1.84 µM [falling, partial curve].
Consider `COc1ccc(NC(=O)c2ccccc2OCc2ccc(F)cc2)c(OC)c1`, for which the cell number change amounted to 5%. Moreover, the AC50 under setting [1] is 0.116 µM [rising, partial curve, poor fit].

Source of the values: PubChem BioAssay AID2685 (National Center for Advancing Translational Sciences (NCATS), 2010).
